# In PubChem BioAssay AID624093 (National Center for Advancing Translational Sciences (NCATS), 2012):
# The shares of active, inactive and inconclusive entries below differ from those in the screen. Potencies beside an inconclusive call are fits to weak or partial responses and may not hold up. Active and inactive are the calls of the source. Calls follow the shape of the dose curve; as a rule, active = well fitted inhibition curve with a large enough effect; inconclusive = small, poorly fitted or top-dose-only effect; inactive = flat fitted curve, though single readings scatter.
# Biological target: Dual specificity tyrosine-phosphorylation-regulated kinase 1A (Homo sapiens) (UniProt Q13627)
# Experiment: Confirmation Assay for Inhibitors of Dyrk1a (Kinase-Glo Assay): KU probe
# Conditions: Kinase-Glo ATP luminescence; series mostly up to 76.9 µM; activity, negative = inhibition: at the top concentration
# Source text: NIH Molecular Libraries Probe Production Centers Network [MLPCN] NIH Chemical Genomics Center [NCGC] MLSCN Grant: 1R03MH084827-01 PI Name: Tom Misteli NCGC Assay Overview: The CMGC group of protein kinases which includes CDK-like kinases (Clk) and Dyks are essential kinases found in all eukaryotes. Clks have been implicated to play a role in the regulation of alternative splicing; while Dyrks, in particular over expression of Dyrk1A, has been linked to diseases as Down syndrome (DS; OMIM 190685) and Alzheimer disease (AD; OMIM 104300). Among the members of the CMGC group, the Clks and the Dyrks are very closely related therefore to determine validity and selectivity of an active compound observed in the CLK4 qHTS screen (AID:1770), a bioluminescent counter-screen against Dyrk1A was developed. In addition, potent and selective compounds against Dyrk1A were identified to further assess the role of this enzyme in DS and AD. Dyrk1A (Invitrogen, cat # PV3785) was assayed using ATP and DYRKtide (AnaSpec, cat# 62698) as substrates. Promega Kinase-Glo (cat# V6712) technology was used to detect the residual ATP following kinetic reaction. The Kinase-Glo Plus contains Ultra-Glo [5] luciferase and D-luciferin which generates a bioluminescence signal from the remaining ATP. No enzyme and harmine (Sigma, cat # 286044-1G), a compound shown to inhibit Dyrks were used as a positive control; while DMSO treatment was used as a negative control.
# NCGC Assay Protocol Summary: Two uL/well of substrate solution (8uM Dyrktide, 2uM ATP, 25mM Tris-HCl pH 7.5, 10mM MgCl2 , 0.5mM EGTA, 5mM cystein, 0.01% Triton X-100 final concentration) was dispensed into 1536-well assay plates (Greiner, solid white, medium-binding plates) with Aurora Discovery BioRAPTR Flying Reagent Dispenser (FRD, Beckton-Dickenson). Compound solution (23 nL) was transferred to the assay plate using Kalypsys pin tool equipped with a 1536-pin tool. One uL/well enzyme solution (5nM Dyrk1A, 25mM Tris-HCl pH7.5, 10mM MgCl2, 0.5mM EGTA, 5mM cystein, 0.01% Triton X-100 final concentration) was then added using FRD yielding a total kinase reaction volume of 3uL/well. After 2 hours of room temperature incubation, 3uL Kinase-Glo detection reagent was added for a final assay volume of 6uL/well. The plates were spun for 30 seconds (1000 rpm) and incubated at ambient temperature for 2 minutes followed by a luminescence read using Perkin Elmer ViewLux plate reader at 3 seconds exposure time and 2x binning.
Compound,Potency,"activity, negative = inhibition"
O=[N+]([O-])c1ccc(CNc2ccnc(-c3ccc4c(c3)OCO4)n2)cc1,"inconclusive: 29.2 µM [inhibitor, partial curve, poor fit]",–
FC(F)(F)c1cccc(CNc2ccnc(-c3ccc4c(c3)OCO4)n2)c1,"inconclusive: 16.4 µM [inhibitor, partial curve, poor fit]",–
Clc1cc(Cl)cc(CNc2ccnc(-c3ccc4c(c3)OCO4)n2)c1,–,inactive: -17.3%
Cc1noc(C)c1-c1nccc(NCc2ccc(Cl)c(Cl)c2)n1,–,inactive: -4.65%
COc1ccc(CNc2ccnc(-c3ccc(OC)cc3)n2)cc1,"inconclusive: 32.8 µM [inhibitor, partial curve, poor fit]",–
O=[N+]([O-])c1cc(Nc2nccc(-c3ccc4c(c3)OCO4)n2)cc(C(F)(F)F)c1,active: 0.146 µM,–
COc1ccc(-c2ccnc(NCc3ccc(Cl)c(Cl)c3)n2)cc1OC,"inconclusive: 26 µM [inhibitor, partial curve]",–
COc1ccc(CNc2ccnc(-c3ccc(N(C)C)cc3)n2)cc1,–,inactive: -1.18%
Cc1noc(C)c1-c1nccc(NCc2ccc(Cl)cc2)n1,–,inactive: -5.84%
O=C(Nc1ccnc(-c2ccc3c(c2)OCO3)n1)c1cnc(Cl)c(Cl)c1,"inconclusive: 29.2 µM [inhibitor, partial curve, poor fit]",–
Brc1cc(Br)cc(CNc2ccnc(-c3ccc4c(c3)OCO4)n2)c1,–,inactive: -18.5%
N#Cc1cccc(-c2ncccn2)c1,–,inactive: -13.2%
COc1cccc(-c2nccc(NCc3ccc(Cl)c(Cl)c3)n2)c1,"inconclusive: 29.2 µM [inhibitor, partial curve, poor fit]",–
c1csc(-c2ccnc(-c3ccc4c(c3)OCO4)n2)c1,"inconclusive: 58.2 µM [inhibitor, single point]",–
COc1cccc(Nc2ncc3ncc(=O)n(CCc4ccccc4)c3n2)c1,"inconclusive: 0.146 µM [inhibitor, full curve]",–
CN(C)c1ccc(-c2nccc(NCc3cccs3)n2)cc1,"inconclusive: 29.2 µM [inhibitor, partial curve]",–
Cc1ccc(CNc2ccnc(-c3cccnc3)n2)cc1,"inconclusive: 26 µM [inhibitor, partial curve, poor fit]",–
c1cncc(CNc2nccc(-c3ccc4[nH]ncc4c3)n2)c1,active: 0.146 µM,–

# In another format: two of the compounds above
Compound | Potency | activity, negative = inhibition
COc1cccc(-c2nccc(NCc3ccc(Cl)c(Cl)c3)n2)c1 | inconclusive: 29.2 µM [inhibitor, partial curve, poor fit] | –
c1csc(-c2ccnc(-c3ccc4c(c3)OCO4)n2)c1 | inconclusive: 58.2 µM [inhibitor, single point] | –
